Source: the supplement of paper PMC6411743
± gives the standard deviation of the averaged measurements. This is a selection; strong and weak results do not stand in their true shares.

Chains of the proteins cited; added tags and fusions are not shown. Lines headed by an entry give the natural chain unless they say otherwise; changes in a name come on top.
UniProt P08311: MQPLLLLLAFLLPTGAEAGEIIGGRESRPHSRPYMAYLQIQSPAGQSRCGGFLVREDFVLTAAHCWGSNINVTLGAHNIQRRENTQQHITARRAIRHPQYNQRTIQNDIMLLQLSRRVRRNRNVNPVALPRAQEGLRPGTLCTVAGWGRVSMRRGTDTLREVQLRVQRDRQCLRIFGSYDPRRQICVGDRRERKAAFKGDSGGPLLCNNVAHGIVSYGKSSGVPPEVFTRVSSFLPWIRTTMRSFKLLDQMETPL
UniProt O95989: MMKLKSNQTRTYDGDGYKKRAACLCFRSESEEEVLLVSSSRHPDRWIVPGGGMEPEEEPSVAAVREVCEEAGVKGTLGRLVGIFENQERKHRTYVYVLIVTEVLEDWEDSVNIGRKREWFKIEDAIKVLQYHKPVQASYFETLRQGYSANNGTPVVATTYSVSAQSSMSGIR
UniProt P08243: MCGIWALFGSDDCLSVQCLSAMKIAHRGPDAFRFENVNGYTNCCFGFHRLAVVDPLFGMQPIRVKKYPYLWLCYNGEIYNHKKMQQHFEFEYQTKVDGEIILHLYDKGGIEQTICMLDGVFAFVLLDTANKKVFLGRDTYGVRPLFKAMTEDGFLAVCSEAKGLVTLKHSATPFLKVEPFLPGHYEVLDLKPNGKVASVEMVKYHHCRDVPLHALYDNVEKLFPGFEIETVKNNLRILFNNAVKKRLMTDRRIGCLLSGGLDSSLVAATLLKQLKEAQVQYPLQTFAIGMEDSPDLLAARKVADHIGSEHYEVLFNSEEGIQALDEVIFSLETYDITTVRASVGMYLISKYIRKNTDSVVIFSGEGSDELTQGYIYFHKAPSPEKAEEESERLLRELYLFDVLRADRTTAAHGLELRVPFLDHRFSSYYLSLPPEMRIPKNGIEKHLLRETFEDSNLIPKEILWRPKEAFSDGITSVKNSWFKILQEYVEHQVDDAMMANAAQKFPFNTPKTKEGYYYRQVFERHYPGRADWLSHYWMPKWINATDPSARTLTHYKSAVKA
UniProt P11169: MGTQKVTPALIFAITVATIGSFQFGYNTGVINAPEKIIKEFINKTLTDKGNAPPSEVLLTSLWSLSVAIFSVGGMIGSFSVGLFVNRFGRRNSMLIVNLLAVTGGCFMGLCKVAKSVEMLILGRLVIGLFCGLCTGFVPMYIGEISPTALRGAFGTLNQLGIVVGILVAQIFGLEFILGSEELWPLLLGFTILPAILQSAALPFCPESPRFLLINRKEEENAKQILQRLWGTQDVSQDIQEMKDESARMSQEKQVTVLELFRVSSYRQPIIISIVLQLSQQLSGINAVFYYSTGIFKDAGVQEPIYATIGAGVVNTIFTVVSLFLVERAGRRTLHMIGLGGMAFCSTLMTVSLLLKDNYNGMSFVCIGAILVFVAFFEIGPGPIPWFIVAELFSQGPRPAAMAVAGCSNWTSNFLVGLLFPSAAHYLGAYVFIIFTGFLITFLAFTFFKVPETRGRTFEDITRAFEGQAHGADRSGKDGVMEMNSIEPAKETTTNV
UniProt P13612, whole entry: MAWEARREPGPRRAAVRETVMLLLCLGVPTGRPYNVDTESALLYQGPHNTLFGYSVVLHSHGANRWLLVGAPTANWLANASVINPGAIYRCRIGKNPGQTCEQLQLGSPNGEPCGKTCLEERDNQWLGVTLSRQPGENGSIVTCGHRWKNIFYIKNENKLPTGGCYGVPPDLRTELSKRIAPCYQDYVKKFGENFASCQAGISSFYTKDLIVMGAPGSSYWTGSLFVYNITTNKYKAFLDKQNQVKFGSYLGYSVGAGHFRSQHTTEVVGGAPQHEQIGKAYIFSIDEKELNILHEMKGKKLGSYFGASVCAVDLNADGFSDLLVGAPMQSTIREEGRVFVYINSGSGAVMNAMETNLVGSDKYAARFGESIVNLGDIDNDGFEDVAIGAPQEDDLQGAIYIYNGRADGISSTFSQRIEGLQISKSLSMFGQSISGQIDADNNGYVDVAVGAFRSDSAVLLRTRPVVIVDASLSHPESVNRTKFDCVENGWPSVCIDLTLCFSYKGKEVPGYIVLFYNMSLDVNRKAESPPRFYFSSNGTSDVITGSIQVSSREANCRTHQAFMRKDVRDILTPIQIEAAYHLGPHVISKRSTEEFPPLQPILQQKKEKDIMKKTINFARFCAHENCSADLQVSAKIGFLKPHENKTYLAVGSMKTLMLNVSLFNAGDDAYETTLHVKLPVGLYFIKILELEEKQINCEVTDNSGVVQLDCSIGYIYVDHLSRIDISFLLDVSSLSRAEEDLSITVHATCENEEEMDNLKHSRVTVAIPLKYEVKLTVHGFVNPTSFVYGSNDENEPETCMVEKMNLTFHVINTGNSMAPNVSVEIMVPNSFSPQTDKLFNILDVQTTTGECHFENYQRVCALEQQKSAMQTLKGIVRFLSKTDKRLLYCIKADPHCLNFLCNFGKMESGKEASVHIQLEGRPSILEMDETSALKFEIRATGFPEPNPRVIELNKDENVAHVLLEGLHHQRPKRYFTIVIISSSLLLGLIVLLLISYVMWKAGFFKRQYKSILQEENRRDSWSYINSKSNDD
UniProt P05114: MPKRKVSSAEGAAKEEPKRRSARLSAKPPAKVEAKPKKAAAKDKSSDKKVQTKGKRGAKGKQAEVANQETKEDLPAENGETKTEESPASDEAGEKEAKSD
UniProt P06213, whole entry: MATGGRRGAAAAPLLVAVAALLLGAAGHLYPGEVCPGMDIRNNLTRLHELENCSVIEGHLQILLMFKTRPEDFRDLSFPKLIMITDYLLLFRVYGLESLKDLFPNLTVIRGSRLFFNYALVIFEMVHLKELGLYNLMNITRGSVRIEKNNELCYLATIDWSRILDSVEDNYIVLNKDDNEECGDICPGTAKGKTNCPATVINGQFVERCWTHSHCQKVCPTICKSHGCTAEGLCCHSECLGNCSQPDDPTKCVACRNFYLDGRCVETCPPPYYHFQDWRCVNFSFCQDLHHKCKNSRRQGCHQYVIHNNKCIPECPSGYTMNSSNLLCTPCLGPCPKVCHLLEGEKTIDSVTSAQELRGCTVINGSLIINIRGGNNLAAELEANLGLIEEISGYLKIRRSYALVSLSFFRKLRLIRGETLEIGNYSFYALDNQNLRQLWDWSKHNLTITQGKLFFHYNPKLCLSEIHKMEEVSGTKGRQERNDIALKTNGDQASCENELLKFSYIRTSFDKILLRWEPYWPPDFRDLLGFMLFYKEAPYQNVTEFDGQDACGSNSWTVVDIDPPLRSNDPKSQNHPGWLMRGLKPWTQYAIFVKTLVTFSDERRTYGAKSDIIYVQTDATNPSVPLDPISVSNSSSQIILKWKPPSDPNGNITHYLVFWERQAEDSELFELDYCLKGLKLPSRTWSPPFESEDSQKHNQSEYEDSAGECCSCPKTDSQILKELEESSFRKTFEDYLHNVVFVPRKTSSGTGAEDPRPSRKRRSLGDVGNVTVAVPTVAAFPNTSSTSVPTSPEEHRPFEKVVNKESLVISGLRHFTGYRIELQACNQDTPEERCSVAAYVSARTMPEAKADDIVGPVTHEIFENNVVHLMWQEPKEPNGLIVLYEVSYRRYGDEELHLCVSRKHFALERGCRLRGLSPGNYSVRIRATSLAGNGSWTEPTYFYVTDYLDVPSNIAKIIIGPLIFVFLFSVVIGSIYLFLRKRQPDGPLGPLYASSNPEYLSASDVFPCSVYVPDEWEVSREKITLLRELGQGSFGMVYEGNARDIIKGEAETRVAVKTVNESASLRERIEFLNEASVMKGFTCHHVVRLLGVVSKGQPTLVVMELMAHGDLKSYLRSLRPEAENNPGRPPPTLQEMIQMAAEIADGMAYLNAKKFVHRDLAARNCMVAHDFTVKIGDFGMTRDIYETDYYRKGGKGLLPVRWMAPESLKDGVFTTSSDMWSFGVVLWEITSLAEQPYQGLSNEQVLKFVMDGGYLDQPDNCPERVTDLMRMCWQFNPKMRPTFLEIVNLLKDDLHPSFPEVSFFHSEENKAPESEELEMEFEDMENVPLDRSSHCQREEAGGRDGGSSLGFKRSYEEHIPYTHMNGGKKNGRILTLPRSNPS
UniProt P11831: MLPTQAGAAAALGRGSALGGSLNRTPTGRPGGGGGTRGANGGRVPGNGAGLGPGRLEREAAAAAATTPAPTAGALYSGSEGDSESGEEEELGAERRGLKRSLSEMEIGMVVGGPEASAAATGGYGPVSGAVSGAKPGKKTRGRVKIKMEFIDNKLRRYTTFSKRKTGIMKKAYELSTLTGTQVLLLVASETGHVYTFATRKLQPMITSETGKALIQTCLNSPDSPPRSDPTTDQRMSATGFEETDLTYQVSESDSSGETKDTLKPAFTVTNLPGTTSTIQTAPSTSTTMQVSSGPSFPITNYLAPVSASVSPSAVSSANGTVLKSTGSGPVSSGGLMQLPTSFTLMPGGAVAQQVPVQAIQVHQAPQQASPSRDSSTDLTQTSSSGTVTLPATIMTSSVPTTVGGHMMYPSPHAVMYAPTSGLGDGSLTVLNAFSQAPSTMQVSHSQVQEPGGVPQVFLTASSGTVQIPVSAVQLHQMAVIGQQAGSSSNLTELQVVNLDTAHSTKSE
UniProt P04818: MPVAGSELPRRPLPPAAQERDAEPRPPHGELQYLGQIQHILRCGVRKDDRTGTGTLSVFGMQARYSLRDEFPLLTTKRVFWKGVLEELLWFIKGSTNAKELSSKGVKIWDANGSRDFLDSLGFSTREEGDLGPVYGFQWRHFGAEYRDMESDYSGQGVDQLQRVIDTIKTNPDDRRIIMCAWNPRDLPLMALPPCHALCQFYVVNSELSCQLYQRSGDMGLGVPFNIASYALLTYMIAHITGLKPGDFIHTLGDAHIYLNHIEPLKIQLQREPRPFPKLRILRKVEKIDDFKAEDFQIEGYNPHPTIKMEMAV
UniProt P08754, whole entry: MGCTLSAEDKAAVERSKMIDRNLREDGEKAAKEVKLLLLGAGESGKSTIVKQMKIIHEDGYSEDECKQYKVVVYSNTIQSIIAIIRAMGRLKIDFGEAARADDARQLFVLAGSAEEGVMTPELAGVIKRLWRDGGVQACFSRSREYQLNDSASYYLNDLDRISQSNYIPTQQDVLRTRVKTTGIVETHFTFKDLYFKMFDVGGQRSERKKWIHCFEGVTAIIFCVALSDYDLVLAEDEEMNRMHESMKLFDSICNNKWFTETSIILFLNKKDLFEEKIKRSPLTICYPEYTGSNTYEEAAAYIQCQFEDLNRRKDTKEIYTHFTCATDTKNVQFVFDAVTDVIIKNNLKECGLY
UniProt P10636, whole entry: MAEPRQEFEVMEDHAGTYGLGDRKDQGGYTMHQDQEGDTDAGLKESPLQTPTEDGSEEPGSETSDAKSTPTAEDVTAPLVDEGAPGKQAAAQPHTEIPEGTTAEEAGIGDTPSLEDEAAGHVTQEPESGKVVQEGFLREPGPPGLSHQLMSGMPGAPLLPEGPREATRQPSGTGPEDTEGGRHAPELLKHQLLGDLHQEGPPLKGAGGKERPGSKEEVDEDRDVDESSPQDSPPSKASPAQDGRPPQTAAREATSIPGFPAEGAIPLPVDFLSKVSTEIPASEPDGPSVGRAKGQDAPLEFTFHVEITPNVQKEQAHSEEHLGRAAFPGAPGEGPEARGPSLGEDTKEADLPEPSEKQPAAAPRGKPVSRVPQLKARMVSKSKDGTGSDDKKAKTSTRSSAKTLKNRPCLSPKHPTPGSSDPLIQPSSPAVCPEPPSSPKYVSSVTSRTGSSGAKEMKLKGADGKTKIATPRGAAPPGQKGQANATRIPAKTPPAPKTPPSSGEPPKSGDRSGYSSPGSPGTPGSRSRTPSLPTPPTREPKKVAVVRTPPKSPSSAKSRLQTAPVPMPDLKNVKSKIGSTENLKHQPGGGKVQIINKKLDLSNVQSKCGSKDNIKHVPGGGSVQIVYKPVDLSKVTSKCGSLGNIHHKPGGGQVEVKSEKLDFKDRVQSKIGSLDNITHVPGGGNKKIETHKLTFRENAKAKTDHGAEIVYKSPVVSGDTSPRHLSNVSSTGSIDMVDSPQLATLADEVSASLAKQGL
UniProt P13073, whole entry: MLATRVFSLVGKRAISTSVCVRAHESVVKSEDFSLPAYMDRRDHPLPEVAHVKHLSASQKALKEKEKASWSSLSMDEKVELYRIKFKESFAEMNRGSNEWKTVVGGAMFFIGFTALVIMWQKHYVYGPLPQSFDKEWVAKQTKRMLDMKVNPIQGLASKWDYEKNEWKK
UniProt P11441: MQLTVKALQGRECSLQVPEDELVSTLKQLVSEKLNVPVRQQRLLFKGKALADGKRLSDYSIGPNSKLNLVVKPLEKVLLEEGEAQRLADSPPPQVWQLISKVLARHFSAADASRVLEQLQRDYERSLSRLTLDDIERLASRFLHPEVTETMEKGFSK
UniProt P10768: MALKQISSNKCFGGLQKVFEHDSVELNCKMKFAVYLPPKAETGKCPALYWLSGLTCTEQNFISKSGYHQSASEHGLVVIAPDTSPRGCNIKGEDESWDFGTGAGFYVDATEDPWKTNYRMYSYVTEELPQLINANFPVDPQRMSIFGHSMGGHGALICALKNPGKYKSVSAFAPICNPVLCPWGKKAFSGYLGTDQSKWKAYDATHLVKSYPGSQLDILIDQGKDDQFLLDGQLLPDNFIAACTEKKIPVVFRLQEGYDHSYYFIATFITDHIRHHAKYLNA

Compound: Nc1ncnc2c1ncn2[C@@H]1O[C@H](COP(=O)(O)OP(=O)(O)NP(=O)(O)O)[C@@H](O)[C@H]1O [adenylyl imidodiphosphate]
Test: NP40-soluble protein abundance relative to vehicle (solubility fold change) (ratio); higher = more soluble protein in presence of AMP-PNP
Method in brief: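 Across three independent experiments, values are fold changes against the detergent-processed vehicle for each replicate, based on vsn-normalised intensities. The samples were Jurkat crude lysate treated with eight concentrations (0.1 to 10 mM) for 10 min at room temperature and then 3 min at 37 °C. Lysate was solubilised with 0.8% NP40 and benzonase, ultracentrifuged, and the supernatant analysed by TMT-labelled LC-MS/MS.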

Target	NP40-soluble protein abundance (concentration: 1mM)	NP40-soluble protein abundance (concentration: 2mM)	NP40-soluble protein abundance (concentration: 4mM)	NP40-soluble protein abundance (concentration: 6mM)	NP40-soluble protein abundance (concentration: 8mM)	NP40-soluble protein abundance (concentration: 10mM)
UniProt O95749 and related entries	1 ± 0.032	0.969 ± 0.027	0.9656 ± 0.0033	0.974 ± 0.016	0.978 ± 0.017	0.944 ± 0.015
AKR1A1 (UniProt P14550)	0.957 ± 0.043	0.931 ± 0.053	0.955 ± 0.03	0.951 ± 0.032	0.96 ± 0.032	0.929 ± 0.068
CTSG (UniProt P08311)	1.0006 ± 0.00035	0.9967 ± 0.0072	0.971 ± 0.0081	1 ± 0.011	1.007 ± 0.01	0.977 ± 0.021
NUDT3 (UniProt O95989)	1.03 ± 0.098	0.983 ± 0.068	0.968 ± 0.12	0.986 ± 0.064	0.994 ± 0.11	0.917 ± 0.033
UniProt P00441 and related entries	0.867 ± 0.15	1.17 ± 0.17	0.809 ± 0.086	1.05 ± 0.11	0.858 ± 0.12	0.972 ± 0.11
UniProt P08243 and related entries	1.01 ± 0.049	0.923 ± 0.052	0.974 ± 0.031	0.952 ± 0.026	0.973 ± 0.018	0.919 ± 0.032
LDHB (UniProt P07195)	1.01 ± 0.019	0.92 ± 0.025	0.947 ± 0.02	0.973 ± 0.036	0.969 ± 0.024	0.943 ± 0.013
SLC2A3 (UniProt P11169)	0.976 ± 0.046	0.971 ± 0.073	0.968 ± 0.029	1.03 ± 0.028	1.01 ± 0.049	0.983 ± 0.01
ETFA (UniProt P13804)	0.9899 ± 0.0064	0.9816 ± 0.0097	1.002 ± 0.0035	1.05 ± 0.041	1.04 ± 0.036	1.04 ± 0.028
GAPDH (UniProt P04406)	1.05 ± 0.032	0.987 ± 0.022	0.9925 ± 0.0085	0.9939 ± 0.006	0.9951 ± 0.0052	1.02 ± 0.021
P15531-2|P22392-2|Q32Q12 (UniProt Q32Q12+P22392+P15531)	0.979 ± 0.053	0.981 ± 0.14	0.967 ± 0.13	1.17 ± 0.25	1.2 ± 0.16	1.17 ± 0.23
VIM (UniProt P08670)	1 ± 0.042	1.04 ± 0.032	0.945 ± 0.073	0.923 ± 0.061	0.864 ± 0.082	0.884 ± 0.11
ITGA4 (UniProt P13612)	0.982 ± 0.017	1.01 ± 0.063	0.975 ± 0.034	1.01 ± 0.052	1.01 ± 0.039	1.01 ± 0.047
HARS (UniProt P12081)	0.974 ± 0.014	0.935 ± 0.042	0.9579 ± 0.0065	0.999 ± 0.041	0.979 ± 0.029	0.979 ± 0.039
UniProt P16278 and related entries	1 ± 0.026	1.02 ± 0.06	1.03 ± 0.05	1.02 ± 0.043	1.01 ± 0.048	1.06 ± 0.054
O96007 and related entries (UniProt O96033+O96007)	1.006 ± 0.0091	0.999 ± 0.026	0.983 ± 0.017	0.986 ± 0.022	0.969 ± 0.029	0.991 ± 0.046
COX6C (UniProt P09669)	0.899 ± 0.13	0.908 ± 0.084	0.877 ± 0.066	0.822 ± 0.075	0.838 ± 0.047	0.785 ± 0.09
UniProt P04183 and related entries	1 ± 0.048	1.07 ± 0.11	1.04 ± 0.053	1.02 ± 0.037	1.02 ± 0.033	1.02 ± 0.038
HMGN1 (UniProt P05114)	1.23 ± 0.1	1.36 ± 0.18	1.28 ± 0.074	1.57 ± 0.15	1.54 ± 0.16	1.89 ± 0.36
MIF (UniProt P14174)	0.956 ± 0.052	0.939 ± 0.014	0.988 ± 0.049	1.05 ± 0.13	1.08 ± 0.098	1.07 ± 0.073

Target	NP40-soluble protein abundance (concentration: 1mM)	NP40-soluble protein abundance (concentration: 2mM)	NP40-soluble protein abundance (concentration: 4mM)	NP40-soluble protein abundance (concentration: 6mM)	NP40-soluble protein abundance (concentration: 8mM)	NP40-soluble protein abundance (concentration: 10mM)
UniProt P05165 and related entries	1.03 ± 0.035	0.998 ± 0.053	0.978 ± 0.019	0.961 ± 0.047	0.932 ± 0.069	0.946 ± 0.064
UniProt P04035 and related entries	0.971 ± 0.01	0.98 ± 0.021	0.98 ± 0.022	0.971 ± 0.018	0.978 ± 0.034	0.975 ± 0.027
UniProt P15813	0.958 ± 0.037	0.947 ± 0.026	0.962 ± 0.035	1.02 ± 0.044	1.02 ± 0.028	1 ± 0.045
LAMP1 (UniProt P11279)	1.03 ± 0.059	1.08 ± 0.019	0.985 ± 0.051	1.03 ± 0.06	0.987 ± 0.035	1.03 ± 0.095
UniProt P06213-2|P06213	0.995 ± 0.035	1.02 ± 0.045	0.997 ± 0.022	0.954 ± 0.025	0.969 ± 0.022	0.94 ± 0.014
CKB (UniProt P12277)	0.981 ± 0.023	0.993 ± 0.034	1.01 ± 0.031	1.05 ± 0.025	1.03 ± 0.045	1.03 ± 0.077
SRF (UniProt P11831)	1.02 ± 0.024	1.05 ± 0.057	1.02 ± 0.045	1.03 ± 0.048	1.04 ± 0.059	1.05 ± 0.044
GALT (UniProt P07902)	1.01 ± 0.041	1.04 ± 0.034	1.01 ± 0.033	1 ± 0.034	0.995 ± 0.044	1.01 ± 0.058
HNRNPL (UniProt P14866)	1.04 ± 0.096	1.08 ± 0.043	1.03 ± 0.089	1.02 ± 0.14	1.03 ± 0.12	1.08 ± 0.16
UniProt P07954-2	0.988 ± 0.009	0.968 ± 0.021	0.982 ± 0.014	1.01 ± 0.024	0.998 ± 0.018	1.01 ± 0.02
UniProt O96020 and related entries	0.993 ± 0.024	1.01 ± 0.029	1.029 ± 0.0031	1.0336 ± 0.00011	1.01 ± 0.04	0.988 ± 0.023
P4HB (UniProt P07237)	1.02 ± 0.031	1.02 ± 0.014	0.976 ± 0.043	0.984 ± 0.028	0.955 ± 0.037	0.945 ± 0.057
ANXA3 (UniProt P12429)	1.01 ± 0.035	1 ± 0.025	0.995 ± 0.027	1.01 ± 0.029	1.01 ± 0.019	0.993 ± 0.026
TYMS (UniProt P04818)	0.938 ± 0.03	0.853 ± 0.1	0.908 ± 0.013	0.922 ± 0.029	0.939 ± 0.015	0.874 ± 0.013
GLUD1 (UniProt P00367)	0.956 ± 0.02	0.902 ± 0.045	0.909 ± 0.025	0.925 ± 0.018	0.9 ± 0.036	0.876 ± 0.046
GNAI3 (UniProt P08754)	0.959 ± 0.068	0.877 ± 0.077	0.956 ± 0.024	0.984 ± 0.087	1.03 ± 0.074	0.967 ± 0.083
UniProt P10636-2|P10636-4|P10636-7|P10636-9|P10636-6	1.02 ± 0.013	1.12 ± 0.088	1.04 ± 0.075	1 ± 0.039	0.979 ± 0.053	1.01 ± 0.093
HEXB (UniProt P07686)	1.02 ± 0.039	1.02 ± 0.077	1 ± 0.053	1.01 ± 0.054	1.01 ± 0.026	1.01 ± 0.031
UniProt P15056 and related entries	1.04 ± 0.036	1.02 ± 0.011	0.971 ± 0.022	1.01 ± 0.056	0.994 ± 0.018	0.976 ± 0.013
UniProt P11586 and related entries	1 ± 0.019	0.969 ± 0.048	0.9734 ± 0.005	0.985 ± 0.026	0.968 ± 0.014	0.95 ± 0.028

Single records, from the list above:
ITGA4 (UniProt P13612) reads NP40-soluble protein abundance (concentration: 1mM): 0.982 ± 0.017; NP40-soluble protein abundance (concentration: 2mM): 1.01 ± 0.063; NP40-soluble protein abundance (concentration: 4mM): 0.975 ± 0.034; NP40-soluble protein abundance (concentration: 6mM): 1.01 ± 0.052; NP40-soluble protein abundance (concentration: 8mM): 1.01 ± 0.039; NP40-soluble protein abundance (concentration: 10mM): 1.01 ± 0.047
AKR1A1 (UniProt P14550) reads NP40-soluble protein abundance (concentration: 1mM): 0.957 ± 0.043; NP40-soluble protein abundance (concentration: 2mM): 0.931 ± 0.053; NP40-soluble protein abundance (concentration: 4mM): 0.955 ± 0.03; NP40-soluble protein abundance (concentration: 6mM): 0.951 ± 0.032; NP40-soluble protein abundance (concentration: 8mM): 0.96 ± 0.032; NP40-soluble protein abundance (concentration: 10mM): 0.929 ± 0.068

Following part:

Target	NP40-soluble protein abundance (concentration: 1mM)	NP40-soluble protein abundance (concentration: 2mM)	NP40-soluble protein abundance (concentration: 4mM)	NP40-soluble protein abundance (concentration: 6mM)	NP40-soluble protein abundance (concentration: 8mM)	NP40-soluble protein abundance (concentration: 10mM)
UniProt P06756 and related entries	0.972 ± 0.021	1.02 ± 0.071	0.9964 ± 0.0069	0.987 ± 0.015	0.952 ± 0.015	1.007 ± 0.0064
UniProt P13473-2	0.963 ± 0.026	0.998 ± 0.037	0.947 ± 0.03	0.965 ± 0.017	0.932 ± 0.029	0.928 ± 0.046
COX4I1 (UniProt P13073)	0.984 ± 0.019	1.03 ± 0.039	0.99 ± 0.021	0.984 ± 0.03	0.988 ± 0.018	0.958 ± 0.057
TSPAN13 (UniProt O95857)	0.986 ± 0.022	1.04 ± 0.051	0.982 ± 0.015	0.964 ± 0.018	0.972 ± 0.03	0.988 ± 0.047
GLUL (UniProt P15104)	0.978 ± 0.029	0.989 ± 0.015	0.952 ± 0.017	0.951 ± 0.075	0.918 ± 0.044	0.915 ± 0.055
UniProt P08559 and related entries	0.979 ± 0.13	0.94 ± 0.13	0.925 ± 0.13	0.923 ± 0.17	0.95 ± 0.12	0.965 ± 0.15
SNRPB2 (UniProt P08579)	0.992 ± 0.048	1.02 ± 0.051	1.03 ± 0.047	1.02 ± 0.023	1.08 ± 0.075	1.03 ± 0.051
UniProt P13807 and related entries	0.947 ± 0.11	0.922 ± 0.065	0.895 ± 0.096	0.867 ± 0.14	0.876 ± 0.098	0.863 ± 0.16
UniProt O95864 and related entries	1.01 ± 0.036	1.01 ± 0.02	1.02 ± 0.081	1.06 ± 0.08	1.06 ± 0.062	1.04 ± 0.037
UniProt O95747	0.972 ± 0.014	0.963 ± 0.042	0.963 ± 0.05	0.9479 ± 0.0078	0.939 ± 0.031	0.948 ± 0.022
UBL4A (UniProt P11441)	1.001 ± 0.0077	1.03 ± 0.07	0.969 ± 0.055	0.96 ± 0.037	0.968 ± 0.064	0.945 ± 0.089
UniProt P08236 and related entries	0.95 ± 0.025	0.934 ± 0.019	0.997 ± 0.07	1.01 ± 0.046	1.03 ± 0.032	1.01 ± 0.067
UniProt P04049 and related entries	1.03 ± 0.023	1.06 ± 0.037	1.07 ± 0.04	1.05 ± 0.036	1.06 ± 0.033	1.05 ± 0.032
CREB1 (UniProt P16220)	1.04 ± 0.051	1.07 ± 0.015	1 ± 0.052	1.02 ± 0.019	1 ± 0.031	1.03 ± 0.032
ETS1 (UniProt P14921)	1.01 ± 0.043	0.995 ± 0.063	0.987 ± 0.038	0.96 ± 0.05	0.951 ± 0.042	0.933 ± 0.054
UniProt P14635 and related entries	1.06 ± 0.029	1.07 ± 0.096	1.06 ± 0.051	1.04 ± 0.018	1.03 ± 0.033	1.03 ± 0.042
UniProt P11498 and related entries	1.027 ± 0.0052	0.985 ± 0.063	1.02 ± 0.016	0.9804 ± 0.0035	0.984 ± 0.011	0.965 ± 0.027
ESD (UniProt P10768)	0.986 ± 0.03	0.942 ± 0.022	0.962 ± 0.024	0.983 ± 0.029	0.986 ± 0.015	0.93 ± 0.027
HSPA4L (UniProt O95757)	1.03 ± 0.03	1.04 ± 0.036	1.01 ± 0.012	1.01 ± 0.024	0.987 ± 0.037	0.995 ± 0.027
UniProt P07437	1 ± 0.024	0.938 ± 0.027	0.948 ± 0.025	0.886 ± 0.036	0.87 ± 0.026	0.885 ± 0.01
